Results are given in words; binding and its absence hold for the method and conditions named. In cells and extracts the contact can be indirect. Some binding calls cover weakened binding; strength is not graded here.
Target: T1, Iroquois-Homeobox 4 (IRX4) (human (endogenous in LNCaP)) (UniProt P78413)
T1 sequence: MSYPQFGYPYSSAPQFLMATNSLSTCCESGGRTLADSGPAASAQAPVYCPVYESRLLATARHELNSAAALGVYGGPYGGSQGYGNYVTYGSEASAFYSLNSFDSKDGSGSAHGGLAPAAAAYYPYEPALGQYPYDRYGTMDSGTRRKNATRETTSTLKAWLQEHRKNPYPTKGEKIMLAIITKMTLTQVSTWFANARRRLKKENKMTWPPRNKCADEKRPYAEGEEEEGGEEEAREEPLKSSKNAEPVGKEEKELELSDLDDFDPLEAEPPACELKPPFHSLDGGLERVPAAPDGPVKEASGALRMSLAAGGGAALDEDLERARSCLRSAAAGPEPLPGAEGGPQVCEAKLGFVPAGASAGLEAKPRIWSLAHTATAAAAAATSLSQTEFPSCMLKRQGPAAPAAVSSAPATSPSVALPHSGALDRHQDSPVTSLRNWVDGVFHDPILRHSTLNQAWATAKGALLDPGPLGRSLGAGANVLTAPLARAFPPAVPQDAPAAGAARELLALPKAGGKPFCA
Assay: co-IP; independent IP with anti-IRX4 antibody from LNCaP nuclear enriched lysate, IgG control; Western blot with IRX4 and FOXA1 antibodies

- binding: binds
B1: FOXA1, also known as hepatocyte nuclear factor 3α (HNF-3α) (protein, UniProt P55317 1-472)
chain: MLGTVKMEGHETSDWNSYYADTQEAYSSVPVSNMNSGLGSMNSMNTYMTMNTMTTSGNMTPASFNMSYANPGLGAGLSPGAVAGMPGGSAGAMNSMTAAGVTAMGTALSPSGMGAMGAQQAASMNGLGPYAAAMNPCMSPMAYAPSNLGRSRAGGGGDAKTFKRSYPHAKPPYSYISLITMAIQQAPSKMLTLSEIYQWIMDLFPYYRQNQQRWQNSIRHSLSFNDCFVKVARSPDKPGKGSYWTLHPDSGNMFENGCYLRRQKRFKCEKQPGAGGGGGSGSGGSGAKGGPESRKDPSGASNPSADSPLHRGVHGKTGQLEGAPAPGPAASPQTLDHSGATATGGASELKTPASSTAPPISSGPGALASVPASHPAHGLAPHESQLHLKGDPHYSFNHPFSINNLMSSSEQQHKLDFKAYEQALQYSPYGSTLPASLPLGSASVTTRSPIEPSALEPAYYQGVYSRPVLNTS
